We go through one molecule from paper doi:10.1101/299552.

No constants are given. Whether binding was seen depends on the method and setting.

In one test the target is T1, TetR-KDM2A (UniProt P59997).
T1 sequence: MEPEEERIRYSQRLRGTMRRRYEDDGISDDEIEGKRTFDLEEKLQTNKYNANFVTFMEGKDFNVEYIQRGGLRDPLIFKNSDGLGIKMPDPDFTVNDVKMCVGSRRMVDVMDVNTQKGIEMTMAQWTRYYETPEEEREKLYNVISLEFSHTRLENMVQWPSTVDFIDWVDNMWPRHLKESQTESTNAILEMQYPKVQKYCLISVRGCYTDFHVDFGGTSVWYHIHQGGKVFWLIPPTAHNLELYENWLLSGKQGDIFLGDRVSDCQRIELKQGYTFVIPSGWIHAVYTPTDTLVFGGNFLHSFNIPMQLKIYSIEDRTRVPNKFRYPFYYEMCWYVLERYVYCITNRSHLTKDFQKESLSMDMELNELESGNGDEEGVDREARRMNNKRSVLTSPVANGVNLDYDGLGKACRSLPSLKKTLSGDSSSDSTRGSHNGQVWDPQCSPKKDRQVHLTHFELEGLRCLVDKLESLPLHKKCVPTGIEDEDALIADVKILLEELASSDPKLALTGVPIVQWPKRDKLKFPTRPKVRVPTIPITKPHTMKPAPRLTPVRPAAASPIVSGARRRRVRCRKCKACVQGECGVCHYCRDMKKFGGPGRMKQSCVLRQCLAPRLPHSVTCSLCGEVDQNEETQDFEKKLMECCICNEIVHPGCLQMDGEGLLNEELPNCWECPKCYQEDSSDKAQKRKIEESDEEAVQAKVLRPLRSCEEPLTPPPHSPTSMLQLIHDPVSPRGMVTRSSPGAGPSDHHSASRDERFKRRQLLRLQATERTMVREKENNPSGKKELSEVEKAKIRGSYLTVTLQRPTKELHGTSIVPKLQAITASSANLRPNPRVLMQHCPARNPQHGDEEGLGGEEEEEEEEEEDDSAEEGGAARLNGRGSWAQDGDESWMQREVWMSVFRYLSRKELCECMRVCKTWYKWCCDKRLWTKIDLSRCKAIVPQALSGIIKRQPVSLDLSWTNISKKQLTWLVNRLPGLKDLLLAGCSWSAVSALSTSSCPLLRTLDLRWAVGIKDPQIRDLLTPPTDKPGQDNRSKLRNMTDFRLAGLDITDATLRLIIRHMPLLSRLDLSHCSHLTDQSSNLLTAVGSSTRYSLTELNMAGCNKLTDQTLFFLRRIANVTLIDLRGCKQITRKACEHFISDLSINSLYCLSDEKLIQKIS
Put plainly: TetR tethering to a TetO array with ChIP-qPCR. A general note: Quantitative PCR measures a nucleic acid by following its amplification.

The next test concerns the target T2, TetR-KDM2B (UniProt Q6P1G2).
T2 sequence: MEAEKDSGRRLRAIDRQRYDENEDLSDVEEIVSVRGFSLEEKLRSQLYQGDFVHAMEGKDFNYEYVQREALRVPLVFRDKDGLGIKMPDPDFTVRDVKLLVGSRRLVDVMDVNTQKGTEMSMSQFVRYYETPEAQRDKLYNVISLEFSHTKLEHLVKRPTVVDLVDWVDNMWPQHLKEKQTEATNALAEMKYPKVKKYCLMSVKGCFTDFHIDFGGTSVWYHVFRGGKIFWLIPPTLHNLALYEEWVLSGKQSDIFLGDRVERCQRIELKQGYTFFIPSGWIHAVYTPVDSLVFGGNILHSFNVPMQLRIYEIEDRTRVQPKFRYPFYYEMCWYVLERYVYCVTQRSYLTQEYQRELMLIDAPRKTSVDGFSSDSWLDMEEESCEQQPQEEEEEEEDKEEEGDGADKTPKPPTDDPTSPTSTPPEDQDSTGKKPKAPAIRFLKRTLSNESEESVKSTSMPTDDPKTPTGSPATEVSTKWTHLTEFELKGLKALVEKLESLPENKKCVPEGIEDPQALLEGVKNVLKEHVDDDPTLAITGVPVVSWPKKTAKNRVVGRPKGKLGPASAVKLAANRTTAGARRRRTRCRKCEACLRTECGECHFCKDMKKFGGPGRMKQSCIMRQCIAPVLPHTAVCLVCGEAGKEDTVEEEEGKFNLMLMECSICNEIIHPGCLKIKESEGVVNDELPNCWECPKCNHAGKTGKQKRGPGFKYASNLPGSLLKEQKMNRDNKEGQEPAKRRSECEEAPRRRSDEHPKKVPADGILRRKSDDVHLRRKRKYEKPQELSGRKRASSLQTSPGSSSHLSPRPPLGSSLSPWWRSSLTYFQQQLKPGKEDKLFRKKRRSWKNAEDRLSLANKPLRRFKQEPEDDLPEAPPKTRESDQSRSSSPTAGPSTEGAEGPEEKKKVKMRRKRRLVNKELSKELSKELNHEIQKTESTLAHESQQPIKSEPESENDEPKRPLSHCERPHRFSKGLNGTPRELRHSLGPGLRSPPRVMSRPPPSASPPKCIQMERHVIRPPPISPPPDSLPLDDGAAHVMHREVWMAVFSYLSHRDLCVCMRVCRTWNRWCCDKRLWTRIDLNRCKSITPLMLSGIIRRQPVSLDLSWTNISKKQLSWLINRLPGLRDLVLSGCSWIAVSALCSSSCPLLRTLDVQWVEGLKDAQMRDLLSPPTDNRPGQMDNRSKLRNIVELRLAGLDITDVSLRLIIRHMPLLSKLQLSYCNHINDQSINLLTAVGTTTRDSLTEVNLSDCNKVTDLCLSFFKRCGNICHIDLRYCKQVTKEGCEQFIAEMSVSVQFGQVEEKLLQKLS
Put plainly: TetR tethering to a TetO array with ChIP-qPCR.

B1: CDK8 (protein, UniProt Q8R3L8 1-464)
chain: MDYDFKVKLSSERERVEDLFEYEGCKVGRGTYGHVYKAKRKDGKDDKDYALKQIEGTGISMSACREIALLRELKHPNVISLLKVFLSHADRKVWLLFDYAEHDLWHIIKFHRASKANKKPVQLPRGMVKSLLYQILDGIHYLHANWVLHRDLKPANILVMGEGPERGRVKIADMGFARLFNSPLKPLADLDPVVVTFWYRAPELLLGARHYTKAIDIWAIGCIFAELLTSEPIFHCRQEDIKTSNPYHHDQLDRIFNVMGFPADKDWEDIKKMPEHSTLMKDFRRNTYTNCSLIKYMEKHKVKPDSKAFHLLQKLLTMDPIKRITSEQAMQDPYFLEDPLPTSDVFAGCQIPYPKREFLTEEEPDEKGDKKTQQQQQGNNHTNGTGHPGNQDSGHAQGPPLKKVRVVPPTTTSGGLIMTSDYQRSNPHAAYPNPGPSTSQPQSSMGYSATSQQPPQYSHQTHRY
B1: the binding entry with TetR-KDM2A and in the test with TetR-KDM2B was “no binding” throughout.
